In experiment [1] the target is T1, APE-1 H591Y, 3xflag-tagged, as in the MudPIT immunoprecipitations (C. elegans) (UniProt Q9XVN3).
T1 sequence: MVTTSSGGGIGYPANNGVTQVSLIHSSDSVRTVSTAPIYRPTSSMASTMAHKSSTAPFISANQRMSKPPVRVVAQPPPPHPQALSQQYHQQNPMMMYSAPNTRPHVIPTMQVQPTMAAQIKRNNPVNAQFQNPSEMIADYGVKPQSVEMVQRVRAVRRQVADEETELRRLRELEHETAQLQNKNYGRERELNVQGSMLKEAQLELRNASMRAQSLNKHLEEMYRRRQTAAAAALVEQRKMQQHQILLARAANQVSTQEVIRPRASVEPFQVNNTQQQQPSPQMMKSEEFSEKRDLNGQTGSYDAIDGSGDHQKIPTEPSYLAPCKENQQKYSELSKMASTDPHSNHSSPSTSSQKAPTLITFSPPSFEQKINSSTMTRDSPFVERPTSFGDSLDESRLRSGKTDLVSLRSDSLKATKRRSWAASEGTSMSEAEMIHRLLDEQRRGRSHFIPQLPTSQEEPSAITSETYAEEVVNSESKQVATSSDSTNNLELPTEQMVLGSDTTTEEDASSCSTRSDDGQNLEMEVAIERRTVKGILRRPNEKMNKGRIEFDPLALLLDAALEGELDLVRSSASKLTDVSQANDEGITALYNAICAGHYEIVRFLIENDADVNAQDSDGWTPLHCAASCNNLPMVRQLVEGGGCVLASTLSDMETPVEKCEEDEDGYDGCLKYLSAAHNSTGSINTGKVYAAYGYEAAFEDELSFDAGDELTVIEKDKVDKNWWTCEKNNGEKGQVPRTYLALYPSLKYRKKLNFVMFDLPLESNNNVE
Put plainly: affinity purification with mass spectrometry; 3xflag immunoprecipitation from C. elegans whole-worm lysates (M2 magnetic FLAG beads overnight at 4°C, eluted with 3xFLAG peptide), MudPIT proteomics.

The chains behind the UniProt entries cited, without tags or fusion partners.
UniProt P48727: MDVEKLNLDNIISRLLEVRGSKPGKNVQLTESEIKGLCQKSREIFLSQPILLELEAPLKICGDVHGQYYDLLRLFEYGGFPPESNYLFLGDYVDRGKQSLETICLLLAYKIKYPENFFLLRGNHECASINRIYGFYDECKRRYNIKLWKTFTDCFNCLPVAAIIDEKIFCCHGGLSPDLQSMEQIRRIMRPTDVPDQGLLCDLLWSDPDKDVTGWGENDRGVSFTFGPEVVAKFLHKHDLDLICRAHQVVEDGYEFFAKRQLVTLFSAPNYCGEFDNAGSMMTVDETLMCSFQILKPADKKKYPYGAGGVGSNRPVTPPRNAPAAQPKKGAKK

Experiment [2] deals with T2, APE-1 N583K, 3xflag-tagged, as in the MudPIT immunoprecipitations (C. elegans) (UniProt Q9XVN3).
T2 sequence: T1 sequence with N583K, Y591H
The experiment is described as above.

Substitutions are numbered along the chain they refer to. No constants are given. Whether binding was seen depends on the method and setting. In cells and extracts the contact can be indirect. Here binding means that the protein was enriched with, or labelled near, the bait; the list need not be complete. Tags and fused reporters may be left off the sequences shown.

Regarding “GSP-2 (C. elegans PP1 homolog), as found in the MudPIT immunoprecipitations (from UniProt P48727 1-333) (enzyme)”, the binding entry in experiment [1] and in experiment [2] was “binds” throughout.

The values are drawn from doi:10.1101/2025.05.16.654433.
